Laboratory results from the supplement of paper PMC12764529.
± gives the half width of the 95% confidence interval. For many entries, trypsin and chymotrypsin gave values far apart.

Experiments:
[1] = folding stability dG unfold from trypsin proteolysis; higher = more stable
Experimental: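 Folding stability of de novo designed mini-proteins (<80 aa, no Cys; designed by TrROS, TrMRF, ProteinMPNN and the joint model) was measured by cDNA display proteolysis with trypsin and chymotrypsin. Each protease was used at 11 concentrations in a threefold dilution series plus a no-protease condition. K50 was inferred by Bayesian fitting of sequencing counts, and dG unfold was derived against a sequence-predicted unfolded-state K50 (Tsuboyama et al. method). Sequences shown include variable-length N-terminal GS-type padding (SAGGSAGG...) inside a display construct carrying a PA tag. Rows were kept only if the AF2 dimer inter-PAE was >15, to exclude likely homo-oligomers.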

[2] = folding stability dG unfold from chymotrypsin proteolysis; higher = more stable
Summary of the method: (§1)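 How resistant each design was to proteolysis was captured as K50, inferred by Bayesian fitting of sequencing counts. Unfolding free energy was then derived relative to a sequence-predicted unfolded-state K50 and a shared folded-state K50, per protease or combined. Digestion used trypsin and chymotrypsin at 11 threefold-diluted concentrations plus a no-protease condition, on mini-proteins under 80 residues without cysteine in a PA-tagged cDNA display construct. Designs were kept only when AlphaFold2 dimer inter-PAE was above 15.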

[3] = folding stability dG unfold (combined trypsin and chymotrypsin); higher = more stable
Summary of the method: as §1

Sequence | folding stability dG unfold [1] | folding stability dG unfold [2] | folding stability dG unfold [3]
SAGGSAGGSAGGMRTVTITRVRADGSPVETSTVEVPESVSTVTVTDPADGLTAEVTLSASAGGSAGGSAGGS [r10_970_JUSTAS] | -1.02 ± 0.38 kcal/mol | 1.03 ± 0.046 kcal/mol | 0.691 ± 0.046 kcal/mol
SAGGLKPGDWVIIMTIEFPFPFPDDDGKPQEWRIKITIWVPVEYDPPDGKLEIDNIFINIEIVPPDQISAGG [r13_312_TrROS] | 3.52 ± 0.22 kcal/mol | 4.55 ± 0.1 kcal/mol | 4.44 ± 0.18 kcal/mol
SAGGSSMARVVGYRPDSATVEIVFPGTGKVTTVPFTGTLEEIKERLSALGKELGLPIDFEFLSPELSAGGSA [r2_161_JUSTAS] | 0.204 ± 0.086 kcal/mol | 2.29 ± 0.022 kcal/mol | 1.69 ± 0.1 kcal/mol
SAGGKLDPVTFRVRFKLKFGDKEYEVEVEVTVTLPIPEPAPIVPIPKTAGKNAGGIPNTNTIIVDDGSAGGS [r8_28_TrMRF] | 1.25 ± 0.047 kcal/mol | 3.94 ± 0.12 kcal/mol | 3.44 ± 0.23 kcal/mol
SSSTVTVTVTFPDGTVVTVDFTGSLAEVEAAVREWVRQYAAEQGLDPREVRVTITFADDGTTRERTLPLRSA [r9_1193_JUSTAS] | 0.921 ± 0.043 kcal/mol | 2.42 ± 0.035 kcal/mol | 2.04 ± 0.086 kcal/mol
PGYIIKIKIKYRYKYEREKDPDGETRPRMKPVQREIVINFPPDNLDDLLDELNIPPDYIDRVEIEVMPPGES [r1_351_TrROS] | 0.76 ± 0.097 kcal/mol | 2.79 ± 0.1 kcal/mol | 2.17 ± 0.28 kcal/mol
SAGPDLPFDVRLVEVRDMEVRVTPDGRLVVTLPMVGRHPSGFLVRRTIRFEPETDRVEATGEVRPLDESAGG [r19_320_TrMRF] | 0.581 ± 0.062 kcal/mol | 0.804 ± 0.087 kcal/mol | 0.774 ± 0.059 kcal/mol
SAGGSAGGSADGWVFLVGADVEVEPVPASLLNVPRSVPGEENPYVVKLKEVSFLLVPAKELSAGGSAGGSAG [r3_488_TrMRF] | -0.906 ± 0.39 kcal/mol | 0.734 ± 0.23 kcal/mol | 0.185 ± 0.16 kcal/mol
SAGGLKYRILIEVPLKVKIPGSGKEKTLSKFLEIEIEAESEEEALEFAKKLLEELSPENAKIVSIEKLSAGG [r19_209_TrMRF] | 2.04 ± 0.036 kcal/mol | 4.82 ± 0.056 kcal/mol | 4.41 ± 0.096 kcal/mol
SAGMVIRDPGDGKYIYISPGSGEIEIFNDGKEKKIPFPPGEEMEIEIDPDDGTITITFPNNGRELEIPLSAG [r5_858_TrROS] | 0.598 ± 0.049 kcal/mol | 0.846 ± 0.11 kcal/mol | 0.699 ± 0.16 kcal/mol
SAGGMTIPSSYTLVEEKEELLPNGSKRYTYLIKPPSGDYIVIEVEEPPDGSVKIKEKKLTKEELAKKESAGG [r13_773_JUSTAS] | 0.508 ± 0.04 kcal/mol | 2.82 ± 0.06 kcal/mol | 2.4 ± 0.14 kcal/mol
SAGGDYVVTITEEEVEVGGKKYKTLTIKVVKITEVEEVNGKKKVKVEVKEITIKKEDLDKLKELGIKISAGG [r13_670_TrROS_Hall] | 1.2 ± 0.14 kcal/mol | 3.41 ± 0.13 kcal/mol | 2.68 ± 0.35 kcal/mol
SAGGSAGGSPESVTFPVGDYLVTVTRNPEDGSLTVTVYDPKTGKPIVLPPEVLAENPDLAENLSAGGSAGGS [r12_817_TrMRF] | 3.14 ± 0.11 kcal/mol | 2.35 ± 0.058 kcal/mol | 2.68 ± 0.056 kcal/mol
SAGGMTLTLKVDSEEEAKEAVKKLLEEKGINAKLEKITVTKHTVVHPESEAVETVYTVTVDLVIEPKSAGGS [r16_587_JUSTAS] | 1.23 ± 0.14 kcal/mol | 3.77 ± 0.11 kcal/mol | 3.22 ± 0.21 kcal/mol
SAGGKIIEIEAPPADPLKTAKAIADEILAEAKKKGKKVDYTVIITFPDGSKYVITIDGNGKILKIDPVSAGG [r13_965_TrMRF] | 1.05 ± 0.063 kcal/mol | 3.26 ± 0.087 kcal/mol | 2.95 ± 0.15 kcal/mol
SAGGSAPSAKISRIEEKEDFVTVTVEAPPGTVVAIYDPKTGKVSYRPVAPGDTITVPKDAYIVDLTSAGGSA [r15_418_TrMRF] | -0.588 ± 0.15 kcal/mol | 2.25 ± 0.054 kcal/mol | 1.71 ± 0.11 kcal/mol

In a second layout: results already given.
Sequence	folding stability dG unfold [1]	folding stability dG unfold [2]	folding stability dG unfold [3]
SAGGSAGGSADGWVFLVGADVEVEPVPASLLNVPRSVPGEENPYVVKLKEVSFLLVPAKELSAGGSAGGSAG [r3_488_TrMRF]	-0.906 ± 0.39 kcal/mol	0.734 ± 0.23 kcal/mol	0.185 ± 0.16 kcal/mol
SAGGMTLTLKVDSEEEAKEAVKKLLEEKGINAKLEKITVTKHTVVHPESEAVETVYTVTVDLVIEPKSAGGS [r16_587_JUSTAS]	1.23 ± 0.14 kcal/mol	3.77 ± 0.11 kcal/mol	3.22 ± 0.21 kcal/mol

(cont.)

Sequence | folding stability dG unfold [1] | folding stability dG unfold [2] | folding stability dG unfold [3]
SAGGIVVGEEGVVRITGPGEPVIIPLPENSEVVEIDVPDDGYVRITLRVDGKTVTVDFPSAPPGLTLSAGGS [r16_635_TrMRF] | 1.34 ± 0.038 kcal/mol | 0.355 ± 0.041 kcal/mol | 0.927 ± 0.051 kcal/mol
MYLVRIKIEYKTEDGEKVEKEITLLVEPSEEEAKEKAEELARKIAEELGLSEEEIKKIEVEVVKLGEELEES [r1_159_TrROS_Hall] | 4.05 ± 0.22 kcal/mol | 4.37 ± 0.12 kcal/mol | 4.29 ± 0.15 kcal/mol
SDIVLVLPNGHEVRIVKTDEKVYIYLPATGRVIPIPKELLEELTPEEIVERLVELAHQLGIPPEPVEVRGSA [r9_1211_TrMRF] | 0.975 ± 0.038 kcal/mol | 3.3 ± 0.074 kcal/mol | 2.67 ± 0.096 kcal/mol
SAGGSAGGSEVERLELTVEIDGLRVRVEVERRDGVLVIKVEVEPAPAPPVEVVTEEERLPEGRSAGGSAGGS [r12_710_TrROS_Hall] | -0.0603 ± 0.23 kcal/mol | 2.11 ± 0.14 kcal/mol | 1.54 ± 0.32 kcal/mol
SAGGSAGGEFTVTVTIEKDEEKGFIRIPISVSLPSSAFVPKTVEFLEFAKTLKENLPELEVDASSAGGSAGG [r6_102_TrMRF] | 0.609 ± 0.018 kcal/mol | 0.65 ± 0.075 kcal/mol | 0.679 ± 0.038 kcal/mol
SAGGSKKLKPGETKEIEIDGKIYRIVVEDGKIHIYAKSAEELKEFLKKLPPNLKIVKVEEVSKEELSAGGSA [r2_418_TrROS_Hall] | 0.354 ± 0.14 kcal/mol | 2.76 ± 0.12 kcal/mol | 2.22 ± 0.21 kcal/mol
SAGGSAGGMKVLATTEDGEVYLFDLSEFDLSFEEWLNLGEEELAELLRKAFPEKEITLELVEEPSAGGSAGG [r6_164_TrMRF] | 2.5 ± 0.076 kcal/mol | 3.3 ± 0.047 kcal/mol | 3.02 ± 0.077 kcal/mol
SIEIYEGPEEAEEMAEENGTPVIPIPPDMNLSEILKQLKNQPGLPPDQKIVIVIQWEPGQWYVIRIPIKPSA [r9_314_TrROS] | 2.05 ± 0.059 kcal/mol | 2.734 ± 0.022 kcal/mol | 2.53 ± 0.091 kcal/mol
SAGGSASSMPREYKISITITSPKGGTSYTAEATLTVYPDGSVEIEVTIDDSSSLPSSAVKTITIGTSAGGSA [r15_488_JUSTAS] | 1.86 ± 0.14 kcal/mol | 3.98 ± 0.1 kcal/mol | 3.29 ± 0.11 kcal/mol
SAGGSAGGSKAKITSVSIVEENGELYISVNVEVEYTDSNGKKHTVKKTFIFKVKPGQSLEDLLSAGGSAGGS [r12_889_TrROS_Hall] | 2.94 ± 0.15 kcal/mol | 5.14 ± 0.14 kcal/mol | 4.93 ± 0.2 kcal/mol
SAGGSAGGKAEKITLEIPNTGKKVEIIKPENKAIITVYDKNGKPIKTIVVPPNFPGIEDAVKADSAGGSAGG [r6_424_TrMRF] | -0.267 ± 0.068 kcal/mol | 0.773 ± 0.061 kcal/mol | 0.434 ± 0.12 kcal/mol
SAGGSAGGSMVYKVTVYIPESGETREFVDPGSEEEIKARVKELFPDPNVKVEITPIEASPELLSAGGSAGGS [r12_92_JUSTAS] | 2.11 ± 0.042 kcal/mol | 1.51 ± 0.051 kcal/mol | 1.82 ± 0.045 kcal/mol
SAGGSAGGSDNVKIEWEYNPENGVYTHEVYYDDGRPVTIIINPAEGPIWVFDPPDGKPIAPIPSAGGSAGGS [r12_657_TrROS] | 1.36 ± 0.05 kcal/mol | 0.833 ± 0.023 kcal/mol | 1.07 ± 0.073 kcal/mol
SAGGSAGGSLKPFPIEDITVQPRRNPDGNRYYQVSIRIKGPGRPINIPFPMDNPKKFLEDIIKSAGGSAGGS [r20_238_TrROS] | 0.519 ± 0.081 kcal/mol | 0.143 ± 0.12 kcal/mol | 0.285 ± 0.17 kcal/mol
SAKITIYSPNGRPIEIEIPPGYKIENVHIHPGMGHIAIKFKPPGDGKEYSIMLHVHPGGDMDISIQPRESAG [r14_311_TrROS] | 1.94 ± 0.09 kcal/mol | 4.2 ± 0.16 kcal/mol | 3.39 ± 0.18 kcal/mol
